Data from paper PMC5682287.
Results are given in words; binding and its absence hold for the method and conditions named. Binding seen in cells or lysates may run through a third protein. Some binding calls cover weakened binding; strength is not graded here. For part of these data: Where a sequence is shown, tags or fusion partners need not be part of it. Each block holds one binder with its values, some of them ahead of it.

Chains of the proteins cited; added tags and fusions are not shown.
UniProt P40763: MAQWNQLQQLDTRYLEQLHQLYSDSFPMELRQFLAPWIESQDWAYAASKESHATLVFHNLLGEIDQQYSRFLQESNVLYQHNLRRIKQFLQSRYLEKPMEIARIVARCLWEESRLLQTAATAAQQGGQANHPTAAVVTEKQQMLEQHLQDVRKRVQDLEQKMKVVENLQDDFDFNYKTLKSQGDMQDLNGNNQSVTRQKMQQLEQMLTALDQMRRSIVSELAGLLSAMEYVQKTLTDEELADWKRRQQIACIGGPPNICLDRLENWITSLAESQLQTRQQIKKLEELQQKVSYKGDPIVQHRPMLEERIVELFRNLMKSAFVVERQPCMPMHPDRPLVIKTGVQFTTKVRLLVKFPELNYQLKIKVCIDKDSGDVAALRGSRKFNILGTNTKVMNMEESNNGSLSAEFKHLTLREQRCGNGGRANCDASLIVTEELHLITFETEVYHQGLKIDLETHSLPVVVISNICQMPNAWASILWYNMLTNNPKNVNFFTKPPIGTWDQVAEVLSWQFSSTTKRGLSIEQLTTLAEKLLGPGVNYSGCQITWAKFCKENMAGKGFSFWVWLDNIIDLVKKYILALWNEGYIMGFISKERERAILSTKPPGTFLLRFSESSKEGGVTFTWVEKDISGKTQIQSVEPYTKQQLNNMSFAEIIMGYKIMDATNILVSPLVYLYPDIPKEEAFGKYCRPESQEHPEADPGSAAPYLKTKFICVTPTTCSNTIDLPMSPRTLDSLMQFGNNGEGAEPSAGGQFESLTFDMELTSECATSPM
UniProt Q04206: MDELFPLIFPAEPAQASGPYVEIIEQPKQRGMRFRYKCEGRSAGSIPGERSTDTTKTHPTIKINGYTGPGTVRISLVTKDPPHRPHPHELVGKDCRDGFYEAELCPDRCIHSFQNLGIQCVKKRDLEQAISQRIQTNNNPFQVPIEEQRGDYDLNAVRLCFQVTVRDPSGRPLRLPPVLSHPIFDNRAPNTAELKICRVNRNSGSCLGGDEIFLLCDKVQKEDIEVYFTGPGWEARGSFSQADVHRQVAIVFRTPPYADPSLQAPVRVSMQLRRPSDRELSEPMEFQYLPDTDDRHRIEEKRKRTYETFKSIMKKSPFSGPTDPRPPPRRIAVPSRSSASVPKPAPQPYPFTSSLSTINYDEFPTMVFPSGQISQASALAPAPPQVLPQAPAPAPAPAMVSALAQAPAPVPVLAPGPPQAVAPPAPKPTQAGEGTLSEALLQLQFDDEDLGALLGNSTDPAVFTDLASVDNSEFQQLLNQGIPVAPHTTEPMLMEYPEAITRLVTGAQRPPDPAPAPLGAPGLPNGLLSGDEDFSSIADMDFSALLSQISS

How the values were obtained:
[1] = target: STAT3, endogenous (human (endogenous in U87 and LN229)) (UniProt P40763); assay: co-IP; endogenous proteins in lysates of LN229 and U87 GBM cells with or without EGFRvIII (also EGF 20 ng/ml with or without erlotinib 10 μM, 24 h); IP buffer 20 mM Tris-HCl pH 7.5, 150 mM NaCl, 1 mM EDTA, 1% Triton X-100, 4 °C; protein G-agarose; Western blot
[2] = target: NF-κB subunit p65, endogenous (human (endogenous in U87 and LN229)) (UniProt Q04206); assay: as above
[3] = target: phospho-STAT3 (p-STAT3), endogenous (human (endogenous in U87 and LN229)) (UniProt P40763); assay: as above
[4] = target: STAT3, endogenous (human (endogenous in U87 and LN229)) (UniProt P40763); assay: co-IP; Flag-tagged shRNA-resistant TRIM24 constructs re-expressed in LN229/vIII/shT24 and U87/vIII/shT24 GBM cells; lysates in IP buffer (20 mM Tris-HCl pH 7.5, 150 mM NaCl, 1 mM EDTA, 1% Triton X-100); protein G-agarose; Western blot
[5] = target: STAT3, endogenous (human (endogenous in U87 and LN229)) (UniProt P40763); assay: co-IP; TRIM24^WT or TRIM24 deletion mutants transfected into U87 GBM cells; endogenous STAT3; lysates in IP buffer (20 mM Tris-HCl pH 7.5, 150 mM NaCl, 1 mM EDTA, 1% Triton X-100); Western blot

- binding [1]: binds
- binding [2]: no binding
- binding [3]: binds
B1: tripartite motif-containing 24 (TRIM24), endogenous (protein, UniProt O15164 1-1050)
chain: MEVAVEKAVAAAAAASAAASGGPSAAPSGENEAESRQGPDSERGGEAARLNLLDTCAVCHQNIQSRAPKLLPCLHSFCQRCLPAPQRYLMLPAPMLGSAETPPPVPAPGSPVSGSSPFATQVGVIRCPVCSQECAERHIIDNFFVKDTTEVPSSTVEKSNQVCTSCEDNAEANGFCVECVEWLCKTCIRAHQRVKFTKDHTVRQKEEVSPEAVGVTSQRPVFCPFHKKEQLKLYCETCDKLTCRDCQLLEHKEHRYQFIEEAFQNQKVIIDTLITKLMEKTKYIKFTGNQIQNRIIEVNQNQKQVEQDIKVAIFTLMVEINKKGKALLHQLESLAKDHRMKLMQQQQEVAGLSKQLEHVMHFSKWAVSSGSSTALLYSKRLITYRLRHLLRARCDASPVTNNTIQFHCDPSFWAQNIINLGSLVIEDKESQPQMPKQNPVVEQNSQPPSGLSSNQLSKFPTQISLAQLRLQHMQQQVMAQRQQVQRRPAPVGLPNPRMQGPIQQPSISHQQPPPRLINFQNHSPKPNGPVLPPHPQQLRYPPNQNIPRQAIKPNPLQMAFLAQQAIKQWQISSGQGTPSTTNSTSSTPSSPTITSAAGYDGKAFGSPMIDLSSPVGGSYNLPSLPDIDCSSTIMLDNIVRKDTNIDHGQPRPPSNRTVQSPNSSVPSPGLAGPVTMTSVHPPIRSPSASSVGSRGSSGSSSKPAGADSTHKVPVVMLEPIRIKQENSGPPENYDFPVVIVKQESDEESRPQNANYPRSILTSLLLNSSQSSTSEETVLRSDAPDSTGDQPGLHQDNSSNGKSEWLDPSQKSPLHVGETRKEDDPNEDWCAVCQNGGELLCCEKCPKVFHLSCHVPTLTNFPSGEWICTFCRDLSKPEVEYDCDAPSHNSEKKKTEGLVKLTPIDKRKCERLLLFLYCHEMSLAFQDPVPLTVPDYYKIIKNPMDLSTIKKRLQEDYSMYSKPEDFVADFRLIFQNCAEFNEPDSEVANAGIKLENYFEELLKNLYPEKRFPKPEFRNESEDNKFSDDSDDDFVQPRKKRLKSIEERQLLK

- binding [4]: binds
B2: Flag-tagged shRNA-resistant TRIM24 wild type (TRIM24^WT*) (protein, UniProt O15164 1-1050)
chain: MEVAVEKAVAAAAAASAAASGGPSAAPSGENEAESRQGPDSERGGEAARLNLLDTCAVCHQNIQSRAPKLLPCLHSFCQRCLPAPQRYLMLPAPMLGSAETPPPVPAPGSPVSGSSPFATQVGVIRCPVCSQECAERHIIDNFFVKDTTEVPSSTVEKSNQVCTSCEDNAEANGFCVECVEWLCKTCIRAHQRVKFTKDHTVRQKEEVSPEAVGVTSQRPVFCPFHKKEQLKLYCETCDKLTCRDCQLLEHKEHRYQFIEEAFQNQKVIIDTLITKLMEKTKYIKFTGNQIQNRIIEVNQNQKQVEQDIKVAIFTLMVEINKKGKALLHQLESLAKDHRMKLMQQQQEVAGLSKQLEHVMHFSKWAVSSGSSTALLYSKRLITYRLRHLLRARCDASPVTNNTIQFHCDPSFWAQNIINLGSLVIEDKESQPQMPKQNPVVEQNSQPPSGLSSNQLSKFPTQISLAQLRLQHMQQQVMAQRQQVQRRPAPVGLPNPRMQGPIQQPSISHQQPPPRLINFQNHSPKPNGPVLPPHPQQLRYPPNQNIPRQAIKPNPLQMAFLAQQAIKQWQISSGQGTPSTTNSTSSTPSSPTITSAAGYDGKAFGSPMIDLSSPVGGSYNLPSLPDIDCSSTIMLDNIVRKDTNIDHGQPRPPSNRTVQSPNSSVPSPGLAGPVTMTSVHPPIRSPSASSVGSRGSSGSSSKPAGADSTHKVPVVMLEPIRIKQENSGPPENYDFPVVIVKQESDEESRPQNANYPRSILTSLLLNSSQSSTSEETVLRSDAPDSTGDQPGLHQDNSSNGKSEWLDPSQKSPLHVGETRKEDDPNEDWCAVCQNGGELLCCEKCPKVFHLSCHVPTLTNFPSGEWICTFCRDLSKPEVEYDCDAPSHNSEKKKTEGLVKLTPIDKRKCERLLLFLYCHEMSLAFQDPVPLTVPDYYKIIKNPMDLSTIKKRLQEDYSMYSKPEDFVADFRLIFQNCAEFNEPDSEVANAGIKLENYFEELLKNLYPEKRFPKPEFRNESEDNKFSDDSDDDFVQPRKKRLKSIEERQLLK

- binding [4]: no binding
B3: Flag-tagged shRNA-resistant TRIM24 R193A/K195A mutant (TRIM24^R193A/K195A*) (protein, UniProt O15164 1-1050)
chain: MEVAVEKAVAAAAAASAAASGGPSAAPSGENEAESRQGPDSERGGEAARLNLLDTCAVCHQNIQSRAPKLLPCLHSFCQRCLPAPQRYLMLPAPMLGSAETPPPVPAPGSPVSGSSPFATQVGVIRCPVCSQECAERHIIDNFFVKDTTEVPSSTVEKSNQVCTSCEDNAEANGFCVECVEWLCKTCIRAHQAVAFTKDHTVRQKEEVSPEAVGVTSQRPVFCPFHKKEQLKLYCETCDKLTCRDCQLLEHKEHRYQFIEEAFQNQKVIIDTLITKLMEKTKYIKFTGNQIQNRIIEVNQNQKQVEQDIKVAIFTLMVEINKKGKALLHQLESLAKDHRMKLMQQQQEVAGLSKQLEHVMHFSKWAVSSGSSTALLYSKRLITYRLRHLLRARCDASPVTNNTIQFHCDPSFWAQNIINLGSLVIEDKESQPQMPKQNPVVEQNSQPPSGLSSNQLSKFPTQISLAQLRLQHMQQQVMAQRQQVQRRPAPVGLPNPRMQGPIQQPSISHQQPPPRLINFQNHSPKPNGPVLPPHPQQLRYPPNQNIPRQAIKPNPLQMAFLAQQAIKQWQISSGQGTPSTTNSTSSTPSSPTITSAAGYDGKAFGSPMIDLSSPVGGSYNLPSLPDIDCSSTIMLDNIVRKDTNIDHGQPRPPSNRTVQSPNSSVPSPGLAGPVTMTSVHPPIRSPSASSVGSRGSSGSSSKPAGADSTHKVPVVMLEPIRIKQENSGPPENYDFPVVIVKQESDEESRPQNANYPRSILTSLLLNSSQSSTSEETVLRSDAPDSTGDQPGLHQDNSSNGKSEWLDPSQKSPLHVGETRKEDDPNEDWCAVCQNGGELLCCEKCPKVFHLSCHVPTLTNFPSGEWICTFCRDLSKPEVEYDCDAPSHNSEKKKTEGLVKLTPIDKRKCERLLLFLYCHEMSLAFQDPVPLTVPDYYKIIKNPMDLSTIKKRLQEDYSMYSKPEDFVADFRLIFQNCAEFNEPDSEVANAGIKLENYFEELLKNLYPEKRFPKPEFRNESEDNKFSDDSDDDFVQPRKKRLKSIEERQLLK

- binding [5]: binds
B4: TRIM24^WT transfected into U87 GBM cells (protein, UniProt O15164 1-1050)
chain: MEVAVEKAVAAAAAASAAASGGPSAAPSGENEAESRQGPDSERGGEAARLNLLDTCAVCHQNIQSRAPKLLPCLHSFCQRCLPAPQRYLMLPAPMLGSAETPPPVPAPGSPVSGSSPFATQVGVIRCPVCSQECAERHIIDNFFVKDTTEVPSSTVEKSNQVCTSCEDNAEANGFCVECVEWLCKTCIRAHQRVKFTKDHTVRQKEEVSPEAVGVTSQRPVFCPFHKKEQLKLYCETCDKLTCRDCQLLEHKEHRYQFIEEAFQNQKVIIDTLITKLMEKTKYIKFTGNQIQNRIIEVNQNQKQVEQDIKVAIFTLMVEINKKGKALLHQLESLAKDHRMKLMQQQQEVAGLSKQLEHVMHFSKWAVSSGSSTALLYSKRLITYRLRHLLRARCDASPVTNNTIQFHCDPSFWAQNIINLGSLVIEDKESQPQMPKQNPVVEQNSQPPSGLSSNQLSKFPTQISLAQLRLQHMQQQVMAQRQQVQRRPAPVGLPNPRMQGPIQQPSISHQQPPPRLINFQNHSPKPNGPVLPPHPQQLRYPPNQNIPRQAIKPNPLQMAFLAQQAIKQWQISSGQGTPSTTNSTSSTPSSPTITSAAGYDGKAFGSPMIDLSSPVGGSYNLPSLPDIDCSSTIMLDNIVRKDTNIDHGQPRPPSNRTVQSPNSSVPSPGLAGPVTMTSVHPPIRSPSASSVGSRGSSGSSSKPAGADSTHKVPVVMLEPIRIKQENSGPPENYDFPVVIVKQESDEESRPQNANYPRSILTSLLLNSSQSSTSEETVLRSDAPDSTGDQPGLHQDNSSNGKSEWLDPSQKSPLHVGETRKEDDPNEDWCAVCQNGGELLCCEKCPKVFHLSCHVPTLTNFPSGEWICTFCRDLSKPEVEYDCDAPSHNSEKKKTEGLVKLTPIDKRKCERLLLFLYCHEMSLAFQDPVPLTVPDYYKIIKNPMDLSTIKKRLQEDYSMYSKPEDFVADFRLIFQNCAEFNEPDSEVANAGIKLENYFEELLKNLYPEKRFPKPEFRNESEDNKFSDDSDDDFVQPRKKRLKSIEERQLLK
